# The list shows a part of the results.
# Key:
# Experiment in all cases: glycan array binding signal (z-score within array); higher = stronger binding
# Conditions in all cases: glycan notation: IUPAC condensed, linker removed
# [1] = target: Fuc(a1-2)Gal(b1-4)GlcNAc(b1-3)Gal(b1-4)GlcNAc(b1-3)Gal(b1-4)GlcNAc
# In short: (§1)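 Negative Z-scores can be read as non-binding. The Z-score is calculated within each array and then averaged across arrays of one protein sequence at different concentrations or buffers and across linkers. Arrays, 3228 in all, were curated from the Consortium for Functional Glycomics database and kept only where the protein sequence was available.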
# [2] = target: Fuc(a1-2)Gal(b1-4)GlcNAc(b1-3)GalNAc
# In short: as §1
# [3] = target: Fuc(a1-2)Gal(b1-4)GlcNAc(b1-3)[Fuc(a1-2)Gal(b1-4)GlcNAc(b1-6)]GalNAc
# In short: as §1
# [4] = target: Fuc(a1-2)Gal(b1-4)GlcNAc(b1-3)[Fuc(a1-3)[Gal(b1-4)]GlcNAc(b1-6)]Gal(b1-4)Glc
# In short: as §1
# [5] = target: Fuc(a1-2)Gal(b1-4)GlcNAc(b1-6)GalNAc
# In short: as §1
# [6] = target: Fuc(a1-2)Gal(b1-4)GlcNAc6S
# In short: as §1
# [7] = target: Fuc(a1-2)Gal(b1-4)[Fuc(a1-3)]GlcNAc
# In short: as §1
# [8] = target: Fuc(a1-2)Gal(b1-4)[Fuc(a1-3)]GlcNAc(b1-2)Man(a1-3)[Fuc(a1-2)Gal(b1-4)[Fuc(a1-3)]GlcNAc(b1-2)Man(a1-6)]Man(b1-4)GlcNAc(b1-4)[Fuc(a1-6)]GlcNAc
# In short: as §1
# [9] = target: Fuc(a1-2)Gal(b1-4)[Fuc(a1-3)]GlcNAc(b1-2)[Fuc(a1-2)Gal(b1-4)[Fuc(a1-3)]GlcNAc(b1-4)]Man(a1-3)[Fuc(a1-2)Gal(b1-4)[Fuc(a1-3)]GlcNAc(b1-2)Man(a1-6)]Man(b1-4)GlcNAc(b1-4)GlcNAc
# In short: as §1
# [10] = target: Fuc(a1-2)Gal(b1-4)[Fuc(a1-3)]GlcNAc(b1-3)Gal(b1-4)[Fuc(a1-3)]GlcNAc
# In short: as §1
# [11] = target: Fuc(a1-2)Gal(b1-4)[Fuc(a1-3)]GlcNAc(b1-3)Gal(b1-4)[Fuc(a1-3)]GlcNAc(b1-3)Gal(b1-4)[Fuc(a1-3)]GlcNAc
# In short: as §1
# [12] = target: Fuc(a1-2)Gal(b1-4)[Fuc(a1-3)]GlcNAc(b1-3)GalNAc
# In short: as §1
# [13] = target: Fuc(a1-2)Gal(b1-4)[Fuc(a1-3)]GlcNAc(b1-3)[Neu5Ac(a2-6)Gal(b1-4)GlcNAc(b1-6)]Gal(b1-4)Glc
# In short: as §1
# [14] = target: Fuc(a1-2)Gal3S(b1-4)GlcNAc
# In short: as §1
# [15] = target: Fuc(a1-2)Gal6S(b1-3)GlcNAc
# In short: as §1
# [16] = target: Fuc(a1-2)Gal6S(b1-3)GlcNAc6S
# In short: as §1
# Fuc(a1-2)Gal6S(b1-4)Glc = target: Fuc(a1-2)Gal6S(b1-4)Glc
# In short: as §1
# [17] = target: Fuc(a1-2)Gal6S(b1-4)Glc6S
# In short: as §1
# Fuc(a1-2)[Gal(a1-3)]Gal = target: Fuc(a1-2)[Gal(a1-3)]Gal
# In short: as §1
# [18] = target: Fuc(a1-2)[Gal(a1-3)]Gal(b1-3)GalNAc
# In short: as §1
# [19] = target: Fuc(a1-2)[Gal(a1-3)]Gal(b1-3)GalNAc(b1-3)Gal(a1-4)Gal(b1-4)Glc
# In short: as §1
# [20] = target: Fuc(a1-2)[Gal(a1-3)]Gal(b1-3)GlcNAc
# In short: as §1
# [21] = target: Fuc(a1-2)[Gal(a1-3)]Gal(b1-3)GlcNAc(b1-2)Man(a1-3)[Fuc(a1-2)[Gal(a1-3)]Gal(b1-3)GlcNAc(b1-2)Man(a1-6)]Man(b1-4)GlcNAc(b1-4)GlcNAc
# In short: as §1
# [22] = target: Fuc(a1-2)[Gal(a1-3)]Gal(b1-3)GlcNAc(b1-2)Man(a1-3)[Fuc(a1-2)[Gal(a1-3)]Gal(b1-3)GlcNAc(b1-2)Man(a1-6)]Man(b1-4)GlcNAc(b1-4)[Fuc(a1-6)]GlcNAc
# In short: as §1
# [23] = target: Fuc(a1-2)[Gal(a1-3)]Gal(b1-3)GlcNAc(b1-3)GalNAc
# In short: as §1
# [24] = target: Fuc(a1-2)[Gal(a1-3)]Gal(b1-3)GlcNAc(b1-6)GalNAc
# In short: as §1
# [25] = target: Fuc(a1-2)[Gal(a1-3)]Gal(b1-4)Glc
# In short: as §1
# [26] = target: Fuc(a1-2)[Gal(a1-3)]Gal(b1-4)GlcNAc
# In short: as §1
# [27] = target: Fuc(a1-2)[Gal(a1-3)]Gal(b1-4)GlcNAc(b1-2)Man
# In short: as §1
# [28] = target: Fuc(a1-2)[Gal(a1-3)]Gal(b1-4)GlcNAc(b1-2)Man(a1-3)[Fuc(a1-2)[Gal(a1-3)]Gal(b1-4)GlcNAc(b1-2)Man(a1-6)]Man(b1-4)GlcNAc(b1-4)GlcNAc
# In short: as §1
binder,measurement,setting,value
PX14343C-bfa-541-26-541 (Bacteroides fragilis) (protein) KAPLDEIADDSFWSDETLVKYYVNDLYSEISVDGLQLQENRSDNSVSAQRDKYRASWFKFNYDMVSASDPQDDDVWEDYYVKVRKCNRFFERIGTSTIEESEKSRLTGEVHFLRAMFYFEMVKRYGGVILLDKVLTMEDNWEIPRSSEKECYDFILEDLKKATEMLPASYGSREKGRATKGAAYALKSRVELYDKRYEDVIKSCAEVYKLGYELVDGTTPEKYRSIWWTTNKDNKEIIFDVQYKSPDVYNNMMVCNMVTYINDKYGDRGWGGLGPTQELIDAFEMADGTPATQYSQAPADQVFDINTCGIYEGREPRFYANIVFHGSQIFFNADKGAVTVDRYLMDTPDKGDGSLTGYNVWKWIDYDNYNYPYAGAGSPDFSTNWIILRYAEIYLNDAEARLETGDVEGARKAVNMIRQRVGLPDLTESDPEKLRELIRKERRIEFAFEEQRFYDVRRWKIGPETQTTLHGVRFVSPTEFKVTKTDIRTWNDRLYLTPVPHDEIVRSSVLKQNLGY,glycan array binding signal (z-score),[1],-0.681
same,glycan array binding signal (z-score),[2],0.282
same,glycan array binding signal (z-score),[3],-0.425
same,glycan array binding signal (z-score),[4],-0.652
same,glycan array binding signal (z-score),[5],-0.468
same,glycan array binding signal (z-score),[6],-0.542
same,glycan array binding signal (z-score),[7],-0.648
same,glycan array binding signal (z-score),[8],0.078
same,glycan array binding signal (z-score),[9],0.44
same,glycan array binding signal (z-score),[10],-0.558
same,glycan array binding signal (z-score),[11],-0.071
same,glycan array binding signal (z-score),[12],-0.284
same,glycan array binding signal (z-score),[13],1.07
same,glycan array binding signal (z-score),[14],-0.822
same,glycan array binding signal (z-score),[15],-0.193
same,glycan array binding signal (z-score),[16],0.425
same,glycan array binding signal (z-score),Fuc(a1-2)Gal6S(b1-4)Glc,3.12
same,glycan array binding signal (z-score),[17],-0.26
same,glycan array binding signal (z-score),Fuc(a1-2)[Gal(a1-3)]Gal,0.21
same,glycan array binding signal (z-score),[18],-0.505
same,glycan array binding signal (z-score),[19],-0.107
same,glycan array binding signal (z-score),[20],-0.558
same,glycan array binding signal (z-score),[21],2.35
same,glycan array binding signal (z-score),[22],0.698
same,glycan array binding signal (z-score),[23],0.719
same,glycan array binding signal (z-score),[24],2.42
same,glycan array binding signal (z-score),[25],0.209
same,glycan array binding signal (z-score),[26],-0.674
same,glycan array binding signal (z-score),[27],-0.447
same,glycan array binding signal (z-score),[28],0.192

# Retrieved one by one from above, two records:
binder,measurement,setting,value
PX14343C-bfa-541-26-541 (Bacteroides fragilis) (protein) KAPLDEIADDSFWSDETLVKYYVNDLYSEISVDGLQLQENRSDNSVSAQRDKYRASWFKFNYDMVSASDPQDDDVWEDYYVKVRKCNRFFERIGTSTIEESEKSRLTGEVHFLRAMFYFEMVKRYGGVILLDKVLTMEDNWEIPRSSEKECYDFILEDLKKATEMLPASYGSREKGRATKGAAYALKSRVELYDKRYEDVIKSCAEVYKLGYELVDGTTPEKYRSIWWTTNKDNKEIIFDVQYKSPDVYNNMMVCNMVTYINDKYGDRGWGGLGPTQELIDAFEMADGTPATQYSQAPADQVFDINTCGIYEGREPRFYANIVFHGSQIFFNADKGAVTVDRYLMDTPDKGDGSLTGYNVWKWIDYDNYNYPYAGAGSPDFSTNWIILRYAEIYLNDAEARLETGDVEGARKAVNMIRQRVGLPDLTESDPEKLRELIRKERRIEFAFEEQRFYDVRRWKIGPETQTTLHGVRFVSPTEFKVTKTDIRTWNDRLYLTPVPHDEIVRSSVLKQNLGY,glycan array binding signal (z-score),Fuc(a1-2)[Gal(a1-3)]Gal,0.21
same,glycan array binding signal (z-score),[28],0.192

# From the supplement of paper PMC8728848
